For the test, the target named is T1, Dppa4 (Developmental Pluripotency Associated 4), endogenous (mouse (endogenous in E14 ESCs)) (UniProt Q8CCG4).
T1 sequence: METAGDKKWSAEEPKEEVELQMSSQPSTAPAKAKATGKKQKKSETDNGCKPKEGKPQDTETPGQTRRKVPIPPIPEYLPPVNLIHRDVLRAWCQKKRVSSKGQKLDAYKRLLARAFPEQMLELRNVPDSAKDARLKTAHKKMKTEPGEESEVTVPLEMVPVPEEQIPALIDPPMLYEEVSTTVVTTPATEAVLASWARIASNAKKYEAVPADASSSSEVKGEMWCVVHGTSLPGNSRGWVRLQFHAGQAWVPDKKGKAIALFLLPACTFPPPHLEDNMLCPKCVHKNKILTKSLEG
In words: co-IP.

Amino acid sequences for entries named in this document (tags omitted).
UniProt P60122: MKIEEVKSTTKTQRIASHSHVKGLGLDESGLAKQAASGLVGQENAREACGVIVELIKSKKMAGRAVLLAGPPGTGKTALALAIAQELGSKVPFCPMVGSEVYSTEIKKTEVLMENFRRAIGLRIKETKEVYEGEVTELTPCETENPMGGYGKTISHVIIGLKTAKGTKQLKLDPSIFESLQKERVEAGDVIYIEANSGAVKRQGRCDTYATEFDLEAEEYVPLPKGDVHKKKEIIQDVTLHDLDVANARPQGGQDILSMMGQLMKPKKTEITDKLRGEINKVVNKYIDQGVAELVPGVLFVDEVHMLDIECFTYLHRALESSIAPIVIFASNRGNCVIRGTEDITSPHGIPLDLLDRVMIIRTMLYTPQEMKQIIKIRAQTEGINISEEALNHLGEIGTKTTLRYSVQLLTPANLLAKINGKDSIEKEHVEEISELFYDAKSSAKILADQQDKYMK

No constants are given. Whether binding was seen depends on the method and setting. Binding seen in cells or lysates may run through a third protein. Some binding calls cover weakened binding; strength is not graded here.

Take Ruvbl1 (from UniProt P60122 1-456): the binding entry is listed as “binds”.

Values taken from doi:10.1101/832873.
